Out of some 330,000 compounds screened, about 7,700 (2.3%) were called active. The shares of active, inactive and inconclusive entries below differ from those in the screen. The call rests on the fitted dose curve; in most records, active means well fitted inhibition curve with a large enough effect; inconclusive means small, poorly fitted or top-dose-only effect, or effect the other way; inactive means flat fitted curve, though single readings scatter. Potencies of inconclusive entries are doubtful fits and often do not repeat.
Assay: qHTS screen for small molecules that inhibit ELG1-dependent DNA repair in human embryonic kidney (HEK293T) cells expressing luciferase-tagged ELG1; further: nearly all actives have a fitted effect of over 55% in size
Conditions: HEK293T ELG1-luciferase reporter, luminescence, 16 h, DNA damage induced by 5-fluorouridine; activity change, negative = inhibition: at 46.1 µM (top of the series)
Method in brief: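 Cells (2,000 per well) received 5-fluorouridine plus test compound or DMSO and were incubated 16 hr at 37 °C, 5% CO2. Luciferase activity was read by luminescence 30 min after ONE-Glo addition; signal suppression marked inhibition of damage-induced ELG1 function.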
On the % scale 0 is the no-effect control and ±100 the full control effect; potency means the concentration at half of the fitted maximal effect.

Row | SMILES | activity change, negative = inhibition | Potency
1 | Cc1cc(NC(=O)COC(=O)C2CCN(S(=O)(=O)c3ccc(Cl)cc3)CC2)no1 | inactive: 2.2% | –
2 | CC(C)(C)Nc1nc(-c2ccc3c(c2)CCN3C(=O)C2CC2)cs1 | – | inconclusive: 4.11 µM [activator, partial curve]
3 | CCC(=O)c1ccc(OCC(=O)OCC(=O)N2c3ccccc3CC2C)cc1 (stereo not given) | – | inconclusive: 3.66 µM [activator, partial curve, poor fit]
4 | CCC(=O)N(CC)c1nc(-c2cc(OC)ccc2OC)cs1 | – | inconclusive: 29.1 µM [inhibitor, single point]
5 | COc1ccc(CN2CC(=O)N3[C@H]4c5ccccc5OC[C@@H]4[C@H](c4ccccc4)[C@]3(C)C2=O)cc1 | – | inconclusive: 29.1 µM [inhibitor, single point]
6 | COc1cccc(OC)c1C(=O)Nc1ccc(C)cc1C(=O)c1ccccc1 | – | active: 16.4 µM
7 | Cc1ccc(N2C(=O)CC(Sc3nc(C)cc(C)n3)C2=O)cc1 (stereo not given) | – | inconclusive: 6.51 µM [inhibitor, partial curve, poor fit]
8 | CCOC(=O)c1cnc2ccc(OC)cc2c1NCCc1ccc(OC)c(OC)c1 | – | active: 20.6 µM
9 | Cc1cc(C)nc(Nc2ccccc2Cl)n1 | inactive: 7.61% | –
10 | O=C(Nc1cc(Cl)ccn1)C1(c2ccccc2)CC1(Cl)Cl (stereo not given) | – | inconclusive: 13 µM [inhibitor, partial curve, poor fit]
11 | O=C(CCc1ccc(O)c(O)c1)NNC(=S)Nc1ccc(Br)cc1Cl | inactive: 10.3% | –
12 | CCCOc1cccc(C(=O)NCCNC(=O)c2cnccn2)c1 | inactive: 4.14% | –
13 | O=C(Nc1ccc2[nH]ncc2c1)c1ccccc1Cl | – | inconclusive: 9.2 µM [activator, partial curve]
14 | CC(NC(=S)NNS(=O)(=O)c1ccc(C(C)(C)C)cc1)c1ccccc1 (stereo not given) | – | inconclusive: 23.1 µM [inhibitor, partial curve, poor fit]
15 | O=C(O)/C=C/C(=O)NNC(=O)c1cccc(Br)c1 | inactive: 14.3% | –
16 | Cc1ccc(NC(=O)COC(=O)C2CC3C=CC2C3)cc1S(=O)(=O)N1CCCCC1 (stereo not given) | inactive: -1.28% | –
17 | O=C(OCC(=O)N1CCN(C(=O)c2ccco2)CC1)c1ccc(Cl)nc1 | inactive: 0% | –
18 | Clc1ccc(-c2cc(COc3ccccc3)on2)cc1 | – | inconclusive: 23.1 µM [activator, partial curve]
19 | Cc1c(/C=N\NC(=O)c2ccc(F)cc2)cnn1C | – | inconclusive: 0.82 µM [inhibitor, full curve, poor fit]
20 | CC1CCN(C2=C(NS(=O)(=O)c3ccc(Cl)cc3)C(=O)c3ccccc3C2=O)CC1 | – | inconclusive: 29.1 µM [inhibitor, single point]
21 | CC(=O)OC(C(=O)NCc1ccc2c(c1)OCO2)c1ccccc1Cl (stereo not given) | – | inconclusive: 6.51 µM [inhibitor, single point]
22 | COc1cc(C(=O)Nc2ccc3c(c2)N(C(=O)CN2CCN(C)CC2)c2ccccc2CC3)cc(OC)c1OC | – | inconclusive: 20.6 µM [activator, partial curve]
23 | COc1ccc(OC)c(C(=O)c2oc3ccccc3c2NC(C)=O)c1 | – | inconclusive: 29.1 µM [inhibitor, single point]
24 | CCOC(=O)[C@@H]1[C@H]2COc3ccc(Br)cc3[C@@H]2N2C(=O)N(c3cccc(Cl)c3)C(=O)[C@@]12C | inactive: -1.92% | –

Single records (already shown). Order of values: activity change, negative = inhibition	Potency
Clc1ccc(-c2cc(COc3ccccc3)on2)cc1 is listed as –	inconclusive: 23.1 µM [activator, partial curve]
COc1cccc(OC)c1C(=O)Nc1ccc(C)cc1C(=O)c1ccccc1 is listed as –	active: 16.4 µM

Next compounds.

Row | SMILES | activity change, negative = inhibition | Potency
25 | Cc1ccc(S(=O)(=O)/N=C(/Nc2cccc3ccccc23)c2ccc(F)cc2)cc1 | inactive: -21.6% | –
26 | COc1ccc(NC(=O)c2cc([N+](=O)[O-])ccc2N2CCCC2)cc1 | inactive: -3.05% | –
27 | COc1ccc(NS(=O)(=O)c2ccc(OC)c(NC(=O)CNC(=O)c3ccc(OC)cc3)c2)cc1 | – | inconclusive: 20.6 µM [inhibitor, single point]
28 | O=C(OCn1nnc2ccccc2c1=O)c1cc(-c2ccccc2)nc2ccccc12 | inactive: 0.821% | –
29 | Cc1ccccc1/C=N\NC(=O)c1ccccc1-n1cccc1 | inactive: 2.37% | –
30 | Cc1nc2ccccc2nc1N/N=C/c1ccc(O)cc1O | – | inconclusive: 6.51 µM [inhibitor, single point]
31 | CCCCN1C2CCCC1CC(NC(=O)c1cccc(OC)c1)C2 (stereo not given) | inactive: 12% | –
32 | Cc1ccc(NS(=O)(=O)c2ccccc2[N+](=O)[O-])cc1C | inactive: -1.74% | –
33 | COc1ccc2nc(C)cc(SCC(=O)N3CCCCC3)c2c1 | – | inconclusive: 11.6 µM [inhibitor, partial curve]
34 | CCOc1ccccc1C1CC(=O)NC(SCC(=O)Nc2nccs2)=C1C#N (stereo not given) | – | inconclusive: 23.1 µM [inhibitor, single point]
35 | CCN1C(=O)c2cccc3c(S(=O)(=O)NCc4ccco4)ccc1c23 | – | inconclusive: 23.1 µM [activator, single point]
36 | COc1ccc(NS(=O)(=O)c2ccc(C)c(C(=O)N(C)Cc3ccc(C)cc3)c2)cc1 | inactive: -22.8% | –
37 | CCOc1ccc2[nH]c3c(NCCN(CC)CC)ncnc3c2c1 | – | inconclusive: 29.1 µM [activator, partial curve, poor fit]
38 | Cc1cccc(C)c1NC(=O)CNC(=O)C(NC(=O)c1ccc(C(C)(C)C)cc1)C(C)C (stereo not given) | – | active: 5.17 µM
39 | O=C1NCCOC(=O)[C@H](Cc2ccc(F)cc2)C/C=C\C[C@H]1CC(=O)N(CCO)Cc1ccccc1 | – | inconclusive: 25.9 µM [inhibitor, partial curve]
40 | Cc1cccc(OCc2n(CC(=O)OC3CC(C)CCC3C(C)C)c3ccccc3[n+]2C)c1 (stereo not given) | – | inconclusive: 29.1 µM [inhibitor, single point]
41 | COc1ccc(Nc2nc(N3CCOCC3)nc(N3CCOCC3)n2)c(OC)c1 | – | inconclusive: 20 µM [inhibitor, partial curve, poor fit]
42 | CC(=O)Nc1cccc(NC(=O)CSc2nc(C3CC3)nc3ccccc23)c1 | – | active: 18.3 µM
43 | O=C1CC(c2ccc3c(c2)OCCO3)Oc2ccc([N+](=O)[O-])cc21 (stereo not given) | – | inconclusive: 2.06 µM [activator, partial curve]
44 | COc1cccc(N2C(=O)CC(N3CCc4ccccc43)C2=O)c1 (stereo not given) | – | inconclusive: 18.4 µM [activator, partial curve, poor fit]
45 | O=C(N/N=C/c1c[nH]c2ccccc12)c1cc(-c2ccccc2)n[nH]1 | – | inconclusive: 18.4 µM [inhibitor, single point]
46 | N#Cc1c(N2C(=O)Nc3ccccc3N2O)sc2c1CCCC2 | – | inconclusive: 29.1 µM [activator, single point]
47 | CCOC(=O)c1ccc(NC(=O)Nc2ccc3c4c(cccc24)C(=O)N3CC)cc1 | inactive: -2.27% | –
48 | CCc1c(C)nc(SCC(=O)N2C(C)CCCC2C)[nH]c1=O (stereo not given) | – | inconclusive: 16.4 µM [activator, partial curve]

Row | SMILES | activity change, negative = inhibition | Potency
49 | Cc1ccnc(NC(=O)c2ccoc2C)c1 | – | inconclusive: 18.4 µM [activator, partial curve]
50 | COc1ccc(N2CCN(C(=O)CN3CCN(c4nc(-c5ccc(F)cc5)cs4)CC3)CC2)cc1 | – | active: 2.06 µM
51 | CC(C)NC(=O)N(C)C[C@@H]1Oc2c(NC(=O)Nc3ccccc3)cccc2C(=O)N([C@H](C)CO)C[C@H]1C | inactive: -8.42% | –
52 | COc1ccccc1N1CCN(C(=O)/C=C/c2c(Cl)nc3ccccn23)CC1 | – | inconclusive: 29.1 µM [inhibitor, single point]
53 | Cn1c(=O)c(C(=O)Nc2ncccn2)c(O)c2ccccc21 | – | inconclusive: 9.2 µM [activator, partial curve]
54 | CNCCCC1c2ccccc2C=Cc2ccccc21 | inactive: -18.7% | –
55 | CCc1cccc(NC(=O)c2cnn(-c3ccccc3)c2C)c1 | – | inconclusive: 0.708 µM [activator, full curve]
56 | COc1ccccc1C(=O)N(Cc1ccc(C)o1)C1CCS(=O)(=O)C1 (stereo not given) | inactive: 6.35% | –
57 | COc1ccc(NC(=S)N(CCCN2CCC(C)CC2)Cc2cccs2)cc1 | – | inconclusive: 6.51 µM [inhibitor, single point]
58 | Cc1nc(SCC(=O)Nc2ccc(N3CCOCC3)cc2)nc(C)c1C | – | inconclusive: 7.31 µM [activator, single point]
59 | Cc1ccc(C)c(NC(=O)C2CC3CCC2C3)c1 (stereo not given) | – | inconclusive: 23.1 µM [activator, partial curve]
60 | CCCN(CC(=O)Nc1cc(Cl)cc(Cl)c1)CC(=O)Nc1ccc(F)c(F)c1F | – | inconclusive: 32.6 µM [inhibitor, single point]
61 | COc1ccccc1C(=O)N1CCN(CCNC(=O)C(=O)Nc2ccc(Br)c(C)c2)CC1 | – | inconclusive: 16.4 µM [inhibitor, partial curve]
62 | Cn1cccc1/C=N/NC(=O)c1ccco1 | – | inconclusive: 14.6 µM [activator, partial curve]
63 | COc1cccc(C=NCCCN=Cc2cccc(OC)c2O)c1O | inactive: -20.8% | –
64 | CC(C)COC(=O)CNc1n[nH]c(=S)[nH]c1=O | – | inconclusive: 29.1 µM [activator, partial curve, poor fit]
65 | O=C1C(Nc2ccccc2)=C2CCCC=C2N1c1ccccc1 | – | inconclusive: 20.6 µM [activator, single point]
66 | Cc1cccc(C)c1NC(=O)CNC(=O)CCC(=O)N1CCOCC1 | inactive: 4.44% | –
67 | Cc1ccc(C)c(S(=O)(=O)/N=C(/Nc2ccccc2)c2ccccc2)c1 | – | inconclusive: 18.3 µM [inhibitor, single point]
68 | C=CCSc1nnc(-c2ccc(Cl)cc2Cl)o1 | – | inconclusive: 2.31 µM [activator, full curve]
69 | Cc1ccsc1/C=N\NC(=O)c1ccc2c(c1)OCO2 | – | inconclusive: 6.51 µM [activator, partial curve]
70 | O=C(NC(=S)Nc1ccccc1Br)c1ccc2c(c1)OCO2 | – | inconclusive: 13 µM [activator, partial curve]

2 records drawn at random from the list so far:
Row | SMILES | activity change, negative = inhibition | Potency
66 | Cc1cccc(C)c1NC(=O)CNC(=O)CCC(=O)N1CCOCC1 | inactive: 4.44% | –
55 | CCc1cccc(NC(=O)c2cnn(-c3ccccc3)c2C)c1 | – | inconclusive: 0.708 µM [activator, full curve]
